These results are taken from the supplement of paper PMC7024190.

Counter-ions that a name gives are not always drawn. This is one part of the list. This data set is noisy: repeats of one test often differ as much as different tests do.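 Human embryonic kidney cells were transiently transfected with a plasmid bearing a Renilla luciferase gene under the HSV-TK promoter. This first-round screen tests roughly ten thousand compounds for ones that increase reporter output.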

In this experiment the test system is HEK 293FT. In words: log relative Renilla luciferase luminescence (reporter expression vs reference, reference not stated) (log (base not stated)); higher = higher recombinant reporter expression. The following applies: 10 µM; time after transfection 48 h.
Consider `CC(=O)SCC(Cc1ccccc1)C(=O)NCC(=O)OCc1ccccc1` (stereo unspecified) [racecadotril], for which the log was 0.119.
For the compound `COC(=O)C1=C(C)NC(C)=C(C(=O)OC(C)C)C1c1cccc2nonc12` (stereo unspecified) [isradipine], the log was determined as 0.0363.
The same measure for `CN1CCC(OC(c2ccccc2)c2ccccc2)CC1` [diphenylpyraline hydrochloride]: -0.187; for `COc1cccc(-c2cc(=O)c3ccc(OC)cc3o2)c1` [7,3'-dimethoxyflavone]: 0.113; for `O=C(Oc1cccc2cccnc12)c1ccccc1` [benzoxiquine]: 0.074.
The result for `C/C=C1\[C@H]2C=C(C)C[C@]1(N)c1ccc(=O)[nH]c1C2` [huperzine a] reads 0.0025; that for `C[N+](C)(C)CCO.[Cl-]` [choline chloride], 0.0267.
The same measure for `Cc1cc(O)c2c(c1)C(=O)c1cc(O)cc(O)c1C2=O` [emodin]: 0.0932; for `CN(C/C=C/C#CC(C)(C)C)Cc1cccc2ccccc12` [terbinafine hydrochloride]: 0.13.
In the case of `Nc1nc(O)c2ncn(CCC(CO)CO)c2n1` [penciclovir], the log is -0.0202.
The same measure for `Fc1ccc([C@@H]2CCNC[C@H]2COc2ccc3c(c2)OCO3)cc1` [paroxetine hydrochloride]: 0.148.
The same measure for `C=C1CCC2C(CC2(C)C)C(=O)CCC1O` (stereo unspecified) [isokobusone]: 0.14.
The result for `NC(CO)C(=O)NNCc1ccc(O)c(O)c1O` (stereo unspecified) [benserazide hydrochloride] reads -0.0766; that for `CN(C)CCCN1c2ccccc2CCc2ccccc21` [imipramine hydrochloride], 0.192; that for `C[C@H]1COc2c(N3CCN(C)CC3)c(F)cc3c(=O)c(C(=O)O)cn1c23` [levofloxacin], -0.0214.
For `NCCC[C@H](N)CC(=O)N[C@H]1CNC(=O)[C@H]([C@H]2C[C@H](O)NC(N)=N2)NC(=O)/C(=C/NC(N)=O)NC(=O)[C@H](CO)NC(=O)[C@H](CO)NC1=O` [viomycin sulfate], the log was determined as 0.0936.
The result for `NCC[C@H](O)C(=O)N[C@@H]1C[C@H](N)[C@@H](O[C@H]2O[C@H](CN)[C@@H](O)[C@H](O)[C@H]2O)[C@H](O)[C@H]1O[C@H]1O[C@H](CO)[C@@H](O)[C@H](N)[C@H]1O` [amikacin sulfate] reads -0.106; that for `COc1ccc2c(c1)OC[C@@H](Cc1ccc(OC)c(OC)c1)[C@H]2O` [tetrahydrosappanone a trimethyl ether], -0.00674; that for `CC(C)=CCOc1cc2oc(=O)ccc2cc1O` [prenyletin], 0.0936.
The result for `O=C(O)CSCC(=O)NC1CCSC1=O` (stereo unspecified) [erdosteine] reads 0.00695; that for `COc1cc(/C=C/C(=O)CC(=O)/C=C/c2ccc(O)c(OC)c2)ccc1O` [curcumin], 0.131.
